The campaign covered roughly 400,000 compounds. About 5,500 (1.4%) were called active. Inconclusive results, whose numbers are uncertain, are shown with a selection of clear calls. Calls follow the shape of the dose curve; as a rule, active = well fitted cell-killing curve with a large enough effect; inconclusive = small, poorly fitted or top-dose-only effect, or effect the other way; inactive = flat fitted curve, though single readings scatter. A potency beside an inconclusive call is a rough fit, not a confirmed value.
Experiment: qHTS assay for MDR1-selective chemotherapeutics: Primary screen using the parental adenocarcinoma cell KB-3-1; also: nearly all actives have a fitted effect of over 60% in size
Settings: KB-3-1 viability, CellTiter-Glo ATP luminescence, 72 h; activity change, negative = cytotoxic: at 46.1 µM (top of the series)
Method in brief: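 KB-3-1 parental drug-naive adenocarcinoma cells in DMEM/10% FBS, incubated 72 h at 37 C with pin-transferred compounds across a concentration series. Viability by CellTiter-Glo luminescence; concentration-response curves fitted after normalization.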
In the case of `CCCn1c(N)c(C(=O)CN(C)CC(=O)Nc2c(Cl)cccc2Cl)c(=O)[nH]c1=O`, the Potency is reported as inconclusive: 18.4 µM [cytotoxic, single point].
For `O=C(Nc1ccc2c(c1)CCC2)c1ccc(F)cc1`, the “activity change, negative = cytotoxic” value was inactive: -0.386%.
In the case of `CCc1c(C)sc2c1CCN(Cc1ccccc1)C2c1ccccc1` (stereo unspecified), the Potency is reported as inconclusive: 29.1 µM [cytotoxic, single point].
With `CCc1nc2c(OCCC3CCCCC3)cccn2c1N(C)C(=O)c1cccs1` the Potency was inconclusive: 29.1 µM [cytotoxic, single point].
For `O=C(CCNS(=O)(=O)c1ccc(Br)cc1)NCc1ccc(Cl)cc1`, the “activity change, negative = cytotoxic” value was inactive: -2.39%.
For `Nc1c(Br)cc(/C=C/c2ccnc3ccccc23)cc1Br`, the Potency was inconclusive: 29.1 µM [cytotoxic, single point].
For `O=C(CSc1ccccc1)Nc1cccc(S(=O)(=O)N2CCCC2)c1`, the “activity change, negative = cytotoxic” value was inactive: 3.57%.
With `CNc1nc(Cl)nc(Nc2ccccc2)n1` the Potency was inconclusive: 29.1 µM [cytotoxic, single point].
For `COc1cccc(-c2cc(C(=O)NN3CCOCC3)c3ccccc3n2)c1`, the Potency was inconclusive: 8.2 µM [rising, partial curve, poor fit].
With `COc1ccccc1S(=O)(=O)Cc1ccc(C(=O)NCc2cccnc2)o1` the Potency was inconclusive: 29.1 µM [cytotoxic, single point].
In the case of `O=C1N[C@H](Cc2c[nH]c3ccccc23)COC(=O)[C@H](Cc2ccc(F)cc2)C/C=C\C[C@H]1CC(=O)N(CCO)Cc1ccccc1`, the Potency is reported as inconclusive: 29.1 µM [cytotoxic, single point].
With `CCCn1c(=O)c(C(=O)NCc2ccccc2)c(O)c2ccccc21` the “activity change, negative = cytotoxic” value was inactive: -21.3%.
For `CCCCCNCC(=O)Nc1cc(C(F)(F)F)ccc1OCCOC`, the “activity change, negative = cytotoxic” value was inactive: 2.18%.
With `Fc1ccc2[nH]c3c(NCc4ccccc4)ncnc3c2c1` the Potency was inconclusive: 23.1 µM [cytotoxic, single point].
For `COc1ccc(CN2C(=O)C(CC(=O)NC3CC3)CC(C(=O)N3CCOCC3)=C2C)cc1` (stereo unspecified), the “activity change, negative = cytotoxic” value was inactive: -0.0637%.
For `Cc1ccc(NC(=O)CN(C)S(=O)(=O)c2ccc3c(c2)n(C)c(=O)c(=O)n3C)cc1F`, the “activity change, negative = cytotoxic” value was inactive: -11%.
In the case of `CCOC(=O)C1CCN(c2ncnc3c2oc2ccc(Br)cc23)CC1`, the Potency is reported as inconclusive: 29.1 µM [cytotoxic, single point].
In the case of `CSc1nnc(-c2ccccc2)c(-c2ccccc2)n1`, the “activity change, negative = cytotoxic” value is reported as inactive: 5.25%.
With `COCCCNC1=C(Cl)C(=O)c2ccccc2C1=O` the Potency was inconclusive: 29.1 µM [cytotoxic, single point].
In the case of `O=C(CSc1oc(-c2ccccc2)nc1S(=O)(=O)c1ccc(Br)cc1)c1ccccc1`, the Potency is reported as inconclusive: 29.1 µM [cytotoxic, single point].
In the case of `Cc1nn(Cc2cccc(C(=O)Nc3ccn(Cc4c(F)c(F)cc(F)c4F)n3)c2)c(C)c1[N+](=O)[O-]`, the Potency is reported as inconclusive: 29.1 µM [cytotoxic, single point].
With `COc1cc(C(=O)Nc2nnc(C3=COCCO3)o2)cc(OC)c1OC` the Potency was inconclusive: 29.1 µM [rising, single point].
With `CC1CN(C(=O)c2cc(S(=O)(=O)N3CCN(c4ccccc4)CC3)ccc2Cl)CC(C)O1` (stereo unspecified) the “activity change, negative = cytotoxic” value was inactive: -20.5%.
For `Cc1ccnc2nc(C(=O)OCC(=O)N(Cc3ccccc3)C(C)C)nn12`, the “activity change, negative = cytotoxic” value was inactive: 4.89%.
In the case of `Cc1ccc(NC(=O)Cn2c(O)c(N=NC(=O)c3cc4ccccc4cc3O)c3ccccc32)cc1`, the Potency is reported as inconclusive: 29.1 µM [cytotoxic, single point].
For `Cc1cc(C)cc(N=Cc2ccc([N+](=O)[O-])s2)c1`, the Potency was inconclusive: 29.1 µM [cytotoxic, single point].
With `Cc1ccc2ccc(C(Nc3ccccc3)c3ccc(C(C)C)cc3)c(O)c2n1` (stereo unspecified) the Potency was active: 14.6 µM.
For `COc1ccc(Cl)cc1C(=O)N(Cc1nc(-c2cccc(C)c2)no1)C(C)C`, the Potency was inconclusive: 20.6 µM [cytotoxic, single point].
For `CCOc1ccc(NS(=O)(=O)c2ccc3ncsc3c2)cc1`, the “activity change, negative = cytotoxic” value was inactive: 1.07%.
With `Cc1ccc(-c2nc(-c3ccccn3)no2)cc1` the Potency was active: 9.2 µM.
In the case of `O=C1C(=O)c2ccccc2C(O)=C1CCCCl`, the Potency is reported as inconclusive: 29.1 µM [cytotoxic, single point].
With `COc1ccccc1CNC(=O)c1ccc(S(=O)(=O)N2CCCC2)cc1` the “activity change, negative = cytotoxic” value was inactive: -2.69%.
For `COc1ccc(C(NC(=O)C2CCN(CCOc3ccc(Cl)cc3Cl)CC2)c2ccccc2C)cn1` (stereo unspecified), the Potency was inconclusive: 29.1 µM [cytotoxic, single point].
With `COCCn1c(-c2ccccc2)csc1=Nc1cccnc1` the Potency was inconclusive: 29.1 µM [cytotoxic, single point].
With `Cc1ccccc1-c1cc(C(=O)NCc2cccs2)n(CC2CC(c3cccnc3)=NO2)n1` (stereo unspecified) the Potency was active: 18.4 µM.
In the case of `O=C(NC(=S)Nc1ccc(S(=O)(=O)N2CCCC2)cc1)C1CC1`, the “activity change, negative = cytotoxic” value is reported as inactive: -1.8%.
With `CN1/C(=C\C(=S)NC(=O)c2cccc(Br)c2)C(C)(C)c2ccccc21` the Potency was inconclusive: 18.4 µM [cytotoxic, single point].
In the case of `O=C(Nc1ccc(Cl)cn1)Nc1ccccc1Cl`, the Potency is reported as inconclusive: 29.1 µM [rising, single point].
In the case of `Cc1ccc2c(c1)N(C(=O)N1CCC(C(=O)NCc3cccc(Br)c3)CC1)CCO2`, the Potency is reported as inconclusive: 20.6 µM [cytotoxic, partial curve, poor fit].
For `O=C(Nc1ccccc1)N1CCCC(c2nc(-c3ccc(F)cc3)no2)C1` (stereo unspecified), the “activity change, negative = cytotoxic” value was inactive: 11.5%.
With `CCCCCc1c(-c2cccc(Br)c2)ncn1CCc1ccccc1OC` the Potency was inconclusive: 29.1 µM [cytotoxic, single point].
With `O=C(N/N=C/c1ccc[nH]1)c1ccc(COc2cccc3cccnc23)cc1` the Potency was active: 2.31 µM.
For `Cc1ccccc1NC(=O)Cc1nnc(SCC(=O)NC2CCCCC2)n1C`, the “activity change, negative = cytotoxic” value was inactive: 4.56%.
For `Cc1cc(C)cc(C(=O)OCC(=O)Nc2ncccn2)c1`, the “activity change, negative = cytotoxic” value was inactive: 1.08%.
For `COCCN(Cc1ccco1)C(=O)Cn1ncc2c([nH]c3ccccc32)c1=O`, the “activity change, negative = cytotoxic” value was inactive: 0%.
With `COc1cc2nc(CC(C)C)n(NC(=O)c3ccccc3)c(=O)c2cc1OC` the “activity change, negative = cytotoxic” value was inactive: 8.69%.
In the case of `CCOc1cc(/C=C/c2ccc3cccc([N+](=O)[O-])c3n2)ccc1O`, the Potency is reported as active: 11.6 µM.
In the case of `CCN(CC)S(=O)(=O)c1cc(NC(=O)Cc2ccc(S(=O)(=O)N3CCOCC3)s2)ccc1Cl`, the Potency is reported as inconclusive: 20.6 µM [cytotoxic, partial curve, poor fit].
In the case of `Cc1nc2n[nH]c(N)c2nc1C`, the Potency is reported as inconclusive: 16.4 µM [cytotoxic, single point].
With `COc1cc(NC(=O)Nc2cccc(Cl)c2)c(OC)cc1NC(=O)CN1CCCCC1` the Potency was inconclusive: 29.1 µM [cytotoxic, single point].
For `COc1ccc(/C=C/C(=O)N2CCCc3ccccc32)cc1`, the “activity change, negative = cytotoxic” value was inactive: 6.12%.
For `Cc1nnc2ccc(-c3cccc(NS(=O)(=O)c4ccccc4[N+](=O)[O-])c3)nn12`, the Potency was inconclusive: 20.6 µM [cytotoxic, single point].
With `CCN(CC)S(=O)(=O)c1cccc(-c2nnc(SCCOc3ccccc3)o2)c1` the Potency was inconclusive: 23.1 µM [cytotoxic, single point].
In the case of `COc1ccc(N2CCN(C(=O)CSc3nnc(-c4cc5ccccc5cc4O)n3C)CC2)cc1`, the Potency is reported as active: 18.4 µM.
For `O=C(O)c1ccccc1NC(=S)NC(=O)c1cccc2ccccc12`, the Potency was inconclusive: 0.0326 µM [rising, full curve].
In the case of `Cc1cccc(-n2c(=O)c3c(c4cc(C)ccc4n3C)n(C)c2=O)c1`, the “activity change, negative = cytotoxic” value is reported as inactive: 2.7%.
For `Cc1cc(Br)cn2c(Cc3cccc(F)c3)c(-c3ccc(F)cc3)nc12`, the Potency was active: 16.4 µM.
With `COc1ccc(N(CC(=O)Nc2ccc(C)cc2C)S(=O)(=O)c2c(C)n[nH]c2C)cc1` the Potency was inconclusive: 8.2 µM [cytotoxic, partial curve].
In the case of `Cc1ccc(CSC(Nc2ccc(F)cc2)=C(C#N)C#N)cc1`, the Potency is reported as inconclusive: 18.4 µM [cytotoxic, single point].
With `CCOC(=O)N1CCN(S(=O)(=O)c2c(C(=O)N3CCCCC3)c(C)n(C)c2C)CC1` the “activity change, negative = cytotoxic” value was inactive: 10.1%.
For `COc1cccc(Nc2nc3ccc(OC)cc3s2)c1`, the “activity change, negative = cytotoxic” value was inactive: 1.4%.
In the case of `O=C(CCS(=O)(=O)Cc1ccc(Cl)cc1)NCCCN1CCN(c2ccccc2F)CC1`, the Potency is reported as inconclusive: 29.1 µM [cytotoxic, single point].
In the case of `COc1ccc(NC(=O)CSCC(=O)N(C)CC(=O)Nc2ccc(Cl)c(C(F)(F)F)c2)cc1`, the “activity change, negative = cytotoxic” value is reported as inactive: -23.3%.
With `Cc1cc(C(=O)Nc2ccc3c(c2)OCCO3)c(C)o1` the “activity change, negative = cytotoxic” value was inactive: 7.4%.
For `CN1c2ccccc2N(C)C1(C)c1cccc2ccccc12`, the Potency was inconclusive: 29.1 µM [cytotoxic, single point].
With `COc1cc(/C=N/NC(=O)NC23CC4CC(CC(C4)C2)C3)ccc1O` the “activity change, negative = cytotoxic” value was inactive: -17%.
In the case of `N#C/C(=C\c1ccncc1)c1ccccn1`, the Potency is reported as inconclusive: 29.1 µM [cytotoxic, single point].
For `N#CC(=C1C=CC(=NO)C(Cl)=C1)c1ccccc1`, the Potency was active: 6.51 µM.
With `Cc1ccc2c(C)c(C(=O)N(Cc3ccccc3)C3CCS(=O)(=O)C3)oc2c1` (stereo unspecified) the Potency was inconclusive: 29.1 µM [cytotoxic, single point].
For `O=C1c2cccc3c([N+](=O)[O-])ccc(c23)C(=O)N1c1ccccn1`, the “activity change, negative = cytotoxic” value was inactive: -13.5%.
For `NC(=O)CN1C(=O)C2(SCC(=O)N2c2cccc(F)c2)c2ccccc21` (stereo unspecified), the “activity change, negative = cytotoxic” value was inactive: 8.1%.
In the case of `O=C(c1cccc(F)c1)N1CCN(C2CCCCC2)CC1`, the “activity change, negative = cytotoxic” value is reported as inactive: -7.84%.
With `Cc1cc(C(=O)COc2ccc(Cl)cc2Br)c(C)n1C` the “activity change, negative = cytotoxic” value was inactive: -0.367%.
In the case of `COc1ccc(S(=O)(=O)N(CC(=O)N2CCN(c3ccccc3OC)CC2)c2ccccc2)cc1`, the Potency is reported as inconclusive: 2.91 µM [cytotoxic, full curve, poor fit].
With `CCCN1CN(c2ccccc2)C(=S)N(c2ccccc2)C1` the “activity change, negative = cytotoxic” value was inactive: 13%.
With `O=C(CN1C(=O)C2C3C=CC(C3)C2C1=O)NCc1ccccc1` (stereo unspecified) the Potency was inconclusive: 0.562 µM [rising, partial curve, poor fit].
% is scaled to controls: 0 for no effect and ±100 for the full control effect; potency is read from the fitted curve at half-maximal effect.
